Source: PubChem BioAssay AID1259425 (University of Nebraska Medical Center, 2018)

- Assay: 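Compare each knockdown with KSR1 silencing using changes in marker transcripts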 (primary screen)
- Cells: HCT116 human colon cancer cells
- Reagent: siRNA pool against human genes, 50 nM siRNA
- Read-out: 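mRNA of six signature genes measured together by branched-DNA assay after 50 nM siRNA pool, blank removed, divided by geometric mean of two housekeeping genes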
- Direction: BNIP3L mRNA: higher = more BNIP3L transcript after knockdown
Shown is a random part of about 14,000 deposited reagents. Not all columns of the deposit are shown. No sequences are given here. Not stated in the record: the time to read-out.

| gene | BNIP3L mRNA, set 1 |
| --- | --- |
| NUDT15 (nudix hydrolase 15) | 0.0905 |
| FRMD1 (FERM domain containing 1) | 0.264 |
| PALS2 (protein associated with LIN7 2, MAGUK p55 family member) | 0.169 |
| WDR77 (WD repeat domain 77) | 0.0663 |
| RHOJ (ras homolog family member J) | 0.0715 |
| THAP2 (THAP domain containing 2) | 0.179 |
| PRB4 (proline rich protein BstNI subfamily 4) | 0.107 |
| ADSL (adenylosuccinate lyase) | 0.39 |
| IFNA7 (interferon alpha 7) | 0.135 |
| PSMC4 (proteasome 26S subunit, ATPase 4) | 0.137 |
| IGLL1 (immunoglobulin lambda like polypeptide 1) | 0.0595 |
| ARL4C (ARF like GTPase 4C) | 0.141 |
| BLNK (B cell linker) | 0.201 |
| UTP6 (UTP6 small subunit processome component) | 0.0508 |
| HNRNPH1 (heterogeneous nuclear ribonucleoprotein H1) | 0.126 |
| TOMM22 (translocase of outer mitochondrial membrane 22) | 0.301 |
| PGCKA1 (PDCD10 and GCKIII kinases associated 1) | 0.116 |
| ENTPD4 (ectonucleoside triphosphate diphosphohydrolase 4) | 0.0752 |
| PRELP (proline and arginine rich end leucine rich repeat protein) | 0.0984 |
| SNX6 (sorting nexin 6) | 0.0916 |
| SDR39U1 (short chain dehydrogenase/reductase family 39U member 1) | 0.194 |
| TARS1 (threonyl-tRNA synthetase 1) | 0.114 |
| SRPX (sushi repeat containing protein X-linked) | 0.0525 |
| PRKACA (protein kinase cAMP-activated catalytic subunit alpha) | 0.0789 |
| MUC5AC (mucin 5AC, oligomeric mucus/gel-forming) | 0.132 |
| CLMP (CXADR like cell adhesion molecule) | 0.219 |
| TENM3 (teneurin transmembrane protein 3) | 0.0971 |
| APOH (apolipoprotein H) | 0.123 |
| STIL (STIL centriolar assembly protein) | 0.0899 |
| KCNQ1DN (KCNQ1 downstream neighbor) | 0.115 |
| GRM5 (glutamate metabotropic receptor 5) | 0.151 |
| CLEC5A (C-type lectin domain containing 5A) | 0.0523 |
| NHEJ1 (non-homologous end joining factor 1) | 0.181 |
| PCMT1 (protein-L-isoaspartate (D-aspartate) O-methyltransferase) | 0.161 |
| RAP2B (RAP2B, member of RAS oncogene family) | 0.104 |
| POLE4 (DNA polymerase epsilon 4, accessory subunit) | 0.0821 |
| HNRNPR (heterogeneous nuclear ribonucleoprotein R) | 0.0832 |
| ZBED3 (zinc finger BED-type containing 3) | 0.246 |
| NYNRIN (NYN domain and retroviral integrase containing) | 0.111 |

An excerpt taken from the entries so far, for reference:
| gene | BNIP3L mRNA, set 1 |
| --- | --- |
| PRKACA (protein kinase cAMP-activated catalytic subunit alpha) | 0.0789 |
| MUC5AC (mucin 5AC, oligomeric mucus/gel-forming) | 0.132 |
| CLMP (CXADR like cell adhesion molecule) | 0.219 |
| TENM3 (teneurin transmembrane protein 3) | 0.0971 |
| APOH (apolipoprotein H) | 0.123 |
| STIL (STIL centriolar assembly protein) | 0.0899 |
| KCNQ1DN (KCNQ1 downstream neighbor) | 0.115 |
| GRM5 (glutamate metabotropic receptor 5) | 0.151 |
| CLEC5A (C-type lectin domain containing 5A) | 0.0523 |
| NHEJ1 (non-homologous end joining factor 1) | 0.181 |

Next entries follow.
| gene | BNIP3L mRNA, set 1 |
| --- | --- |
| AMPD3 (adenosine monophosphate deaminase 3) | 0.1 |
| FCGR2B (Fc gamma receptor IIb) | 0.0448 |
| AGXT (alanine--glyoxylate aminotransferase) | 0.066 |
| PEX19 (peroxisomal biogenesis factor 19) | 0.153 |
| ADNP (activity dependent neuroprotector homeobox) | 0.139 |
| BAK1 (BCL2 antagonist/killer 1) | 0.18 |
| TPD52L3 (TPD52 like 3) | 0.0701 |
| TAS2R1 (taste 2 receptor member 1) | 0.112 |
| H4C5 (H4 clustered histone 5) | 0.121 |
| DIO2 (iodothyronine deiodinase 2) | 0.148 |
| NME5 (NME/NM23 family member 5) | 0.0517 |
| NOP14 (NOP14 nucleolar protein) | 0.137 |
| KCNQ5 (potassium voltage-gated channel subfamily Q member 5) | 0.0861 |
| RNF135 (ring finger protein 135) | 0.256 |
| TPI1 (triosephosphate isomerase 1) | 0.0673 |
| ELOVL1 (ELOVL fatty acid elongase 1) | 0.103 |
| ZSCAN26 (zinc finger and SCAN domain containing 26) | 0.232 |
| ATP6V1E1 (ATPase H+ transporting V1 subunit E1) | 0.226 |
| UCK1 (uridine-cytidine kinase 1) | 0.115 |
| GPSM1 (G protein signaling modulator 1) | 0.146 |
| APH1B (aph-1B gamma-secretase subunit) | 0.251 |
| DSG2 (desmoglein 2) | 0.138 |
| CPSF1 (cleavage and polyadenylation specific factor 1) | 0.133 |
| KMO (kynurenine 3-monooxygenase) | 0.0923 |
